The record followed here is publication PMC10690479.

Amino acid sequences for entries named in this document (tags omitted).
UniProt Q9P2D3: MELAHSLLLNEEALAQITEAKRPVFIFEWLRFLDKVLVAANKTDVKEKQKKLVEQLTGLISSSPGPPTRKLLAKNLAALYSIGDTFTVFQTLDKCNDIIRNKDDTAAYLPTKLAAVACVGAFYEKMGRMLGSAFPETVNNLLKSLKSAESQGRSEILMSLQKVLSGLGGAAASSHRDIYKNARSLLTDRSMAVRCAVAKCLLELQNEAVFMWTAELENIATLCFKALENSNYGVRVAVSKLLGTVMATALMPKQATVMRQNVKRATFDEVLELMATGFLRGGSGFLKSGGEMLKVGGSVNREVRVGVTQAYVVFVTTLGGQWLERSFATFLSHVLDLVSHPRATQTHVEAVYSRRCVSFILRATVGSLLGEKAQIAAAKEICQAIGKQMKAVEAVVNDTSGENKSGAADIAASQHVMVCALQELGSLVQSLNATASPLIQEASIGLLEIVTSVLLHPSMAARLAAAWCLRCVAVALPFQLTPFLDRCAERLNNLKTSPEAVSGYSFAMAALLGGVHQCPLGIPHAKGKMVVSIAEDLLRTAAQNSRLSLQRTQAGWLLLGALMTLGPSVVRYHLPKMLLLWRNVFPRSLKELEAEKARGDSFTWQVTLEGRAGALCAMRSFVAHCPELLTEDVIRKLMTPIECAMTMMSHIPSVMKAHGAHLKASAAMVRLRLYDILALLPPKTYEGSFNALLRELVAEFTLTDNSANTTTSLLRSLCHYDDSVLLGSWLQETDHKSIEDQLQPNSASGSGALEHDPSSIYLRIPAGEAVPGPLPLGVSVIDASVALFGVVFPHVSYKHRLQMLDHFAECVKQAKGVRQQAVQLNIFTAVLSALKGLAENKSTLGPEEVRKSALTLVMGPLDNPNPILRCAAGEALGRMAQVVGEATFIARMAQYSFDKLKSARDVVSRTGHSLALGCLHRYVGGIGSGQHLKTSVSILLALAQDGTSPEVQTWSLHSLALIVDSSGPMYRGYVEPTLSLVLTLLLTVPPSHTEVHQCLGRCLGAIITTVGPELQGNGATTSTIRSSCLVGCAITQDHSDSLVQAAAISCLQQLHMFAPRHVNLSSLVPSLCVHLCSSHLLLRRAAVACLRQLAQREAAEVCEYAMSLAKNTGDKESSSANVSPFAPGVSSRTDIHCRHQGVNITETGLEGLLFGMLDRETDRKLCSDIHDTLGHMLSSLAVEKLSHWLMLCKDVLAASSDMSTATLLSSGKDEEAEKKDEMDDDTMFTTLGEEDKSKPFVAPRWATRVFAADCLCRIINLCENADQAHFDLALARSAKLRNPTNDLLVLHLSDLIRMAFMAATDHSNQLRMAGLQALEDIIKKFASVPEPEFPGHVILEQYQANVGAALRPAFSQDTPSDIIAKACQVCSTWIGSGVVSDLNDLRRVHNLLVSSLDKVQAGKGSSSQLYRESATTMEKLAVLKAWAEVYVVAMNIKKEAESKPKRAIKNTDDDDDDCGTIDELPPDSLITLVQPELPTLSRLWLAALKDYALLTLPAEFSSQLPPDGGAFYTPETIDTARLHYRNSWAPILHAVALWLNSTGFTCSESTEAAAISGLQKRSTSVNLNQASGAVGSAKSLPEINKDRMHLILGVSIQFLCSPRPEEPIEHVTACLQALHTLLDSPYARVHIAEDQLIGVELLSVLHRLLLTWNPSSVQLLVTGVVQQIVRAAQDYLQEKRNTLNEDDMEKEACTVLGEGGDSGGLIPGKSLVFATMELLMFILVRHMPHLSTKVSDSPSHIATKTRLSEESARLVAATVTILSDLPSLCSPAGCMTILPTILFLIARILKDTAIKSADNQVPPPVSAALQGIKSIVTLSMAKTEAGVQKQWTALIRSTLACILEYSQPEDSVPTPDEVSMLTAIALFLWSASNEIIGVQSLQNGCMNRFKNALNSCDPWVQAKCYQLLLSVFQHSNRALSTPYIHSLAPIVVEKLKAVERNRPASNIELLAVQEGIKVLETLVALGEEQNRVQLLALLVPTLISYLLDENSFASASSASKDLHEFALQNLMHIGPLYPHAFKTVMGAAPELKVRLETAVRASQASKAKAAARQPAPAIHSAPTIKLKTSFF
UniProt Q14203: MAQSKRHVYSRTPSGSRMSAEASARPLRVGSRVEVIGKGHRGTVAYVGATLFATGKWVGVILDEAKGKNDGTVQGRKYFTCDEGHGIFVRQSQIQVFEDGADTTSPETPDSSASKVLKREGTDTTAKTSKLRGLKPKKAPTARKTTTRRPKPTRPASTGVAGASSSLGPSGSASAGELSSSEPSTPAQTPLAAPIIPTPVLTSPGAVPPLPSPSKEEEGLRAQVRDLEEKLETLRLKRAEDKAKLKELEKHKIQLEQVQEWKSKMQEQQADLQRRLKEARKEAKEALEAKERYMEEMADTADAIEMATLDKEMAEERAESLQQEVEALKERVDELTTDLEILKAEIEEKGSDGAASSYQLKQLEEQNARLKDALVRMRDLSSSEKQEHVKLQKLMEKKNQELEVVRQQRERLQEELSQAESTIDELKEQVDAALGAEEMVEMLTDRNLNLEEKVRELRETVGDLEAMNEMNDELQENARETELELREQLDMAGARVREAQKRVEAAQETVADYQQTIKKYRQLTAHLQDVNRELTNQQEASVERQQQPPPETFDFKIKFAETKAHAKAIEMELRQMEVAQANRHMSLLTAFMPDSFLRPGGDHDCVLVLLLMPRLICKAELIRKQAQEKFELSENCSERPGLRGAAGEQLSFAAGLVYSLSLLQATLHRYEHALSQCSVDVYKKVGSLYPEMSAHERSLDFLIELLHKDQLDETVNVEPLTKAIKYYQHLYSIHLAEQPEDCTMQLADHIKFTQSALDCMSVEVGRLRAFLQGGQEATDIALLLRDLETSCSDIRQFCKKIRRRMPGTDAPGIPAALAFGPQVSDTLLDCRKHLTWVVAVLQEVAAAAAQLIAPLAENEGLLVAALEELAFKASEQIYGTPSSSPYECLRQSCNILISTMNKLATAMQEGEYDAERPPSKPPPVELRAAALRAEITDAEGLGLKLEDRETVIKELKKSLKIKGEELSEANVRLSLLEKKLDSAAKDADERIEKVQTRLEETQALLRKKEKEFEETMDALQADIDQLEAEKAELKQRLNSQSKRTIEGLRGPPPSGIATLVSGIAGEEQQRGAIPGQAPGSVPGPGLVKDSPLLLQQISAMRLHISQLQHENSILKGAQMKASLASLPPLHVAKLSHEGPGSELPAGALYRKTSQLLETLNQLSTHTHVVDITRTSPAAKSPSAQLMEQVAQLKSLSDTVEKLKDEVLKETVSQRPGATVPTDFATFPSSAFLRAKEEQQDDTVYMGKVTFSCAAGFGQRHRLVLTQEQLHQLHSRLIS

B1: Aftiphilin, endogenous in HEK293 cells (protein, UniProt Q6ULP2 1-936)
chain: MEPDIIRMYSSSPPPLDNGAEDDDDDEFGEFGGFSEVSPSGVGFVDFDTPDYTRPKEEFVPSNHFMPIHEFSENVDSLTSFKSIKNGNDKDITAELSAPVKGQSDVLLSTTSKEIISSEMLATSIDGMERPGNLNKVVEQRQNVGTLESFSPGDFRTNMNVVHQNKQLESCNGEKPPCLEILTNGFAVLETVNPQGTDDLDNVADSKGRKPLSTHSTEYNLDSVPSPAEEFADFATFSKKERIQLEEIECAVLNDREALTIRENNKINRVNELNSVKEVALGRSLDNKGDTDGEDQVCVSEISIVTNRGFSVEKQGLPTLQQDEFLQSGVQSKAWSLVDSADNSEAIRREQCKTEEKLDLLTSKCAHLCMDSVKTSDDEVGSPKEESRKFTNFQSPNIDPTEENDLDDSLSVKNGDSSNDFVTCNDINEDDFGDFGDFGSASGSTPPFVTGTQDSMSDATFEESSEHFPHFSEPGDDFGEFGDINAVSCQEETILTKSDLKQTSDNLSEECQLARKSSGTGTEPVAKLKNGQEGEIGHFDSVPNIQDDCNGFQDSDDFADFSSAGPSQVVDWNAFEDEQKDSCSWAAFGDQQATESHHRKEAWQSHRTDENIDTPGTPKTHSVPSATSKGAVASGHLQESATSVQTALLNRLERIFEACFPSILVPDAEEEVTSLKHLLETSTLPIKTREALPESGELLDVWTELQDIHDAHGLRYQWGGSHSNKKLLSSLGIDTRNILFTGNKKQPVIVPMYAAGLGMLEPTKEPLKPLSAAEKIASIGQTATMSPDMNTCTSDQFQESLPPVQFDWSSSGLTNPLDASGGSTLLNLDFFGPVDDSSSSSSTTIPGVDPELYELTTSKLEISTSSLKVTDAFARLMSTVEKTSTSTRKPKREEHLSEEAIKVIAGLPDLTFMHAKVLMFPATLTPSTSSQEKADG
B2: γ-synergin, endogenous in HEK293 cells (protein, UniProt Q9UMZ2 1-1314)
chain: MALRPGAGSGGGGAAGAGAGSAGGGGFMFPVAGGIRPPQAGLMPMQQQGFPMVSVMQPNMQGIMGMNYSSQMSQGPIAMQAGIPMGPMPAAGMPYLGQAPFLGMRPPGPQYTPDMQKQFAEEQQKRFEQQQKLLEEERKRRQFEEQKQKLRLLSSVKPKTGEKSRDDALEAIKGNLDGFSRDAKMHPTPASHPKKPGPSLEEKFLVSCDISTSGQEQIKLNTSEVGHKALGPGSSKKYPSLMASNGVAVDGCVSGTTTAEAENTSDQNLSIEESGVGVFPSQDPAQPRMPPWIYNESLVPDAYKKILETTMTPTGIDTAKLYPILMSSGLPRETLGQIWALANRTTPGKLTKEELYTVLAMIAVTQRGVPAMSPDALNQFPAAPIPTLSGFSMTLPTPVSQPTVIPSGPAGSMPLSLGQPVMGINLVGPVGGAAAQASSGFIPTYPANQVVKPEEDDFQDFQDASKSGSLDDSFSDFQELPASSKTSNSQHGNSAPSLLMPLPGTKALPSMDKYAVFKGIAADKSSENTVPPGDPGDKYSAFRELEQTAENKPLGESFAEFRSAGTDDGFTDFKTADSVSPLEPPTKDKTFPPSFPSGTIQQKQQTQVKNPLNLADLDMFSSVNCSSEKPLSFSAVFSTSKSVSTPQSTGSAATMTALAATKTSSLADDFGEFSLFGEYSGLAPVGEQDDFADFMAFSNSSISSEQKPDDKYDALKEEASPVPLTSNVGSTVKGGQNSTAASTKYDVFRQLSLEGSGLGVEDLKDNTPSGKSDDDFADFHSSKFSSINSDKSLGEKAVAFRHTKEDSASVKSLDLPSIGGSSVGKEDSEDALSVQFDMKLADVGGDLKHVMSDSSLDLPTVSGQHPPAADIEDLKYAAFGSYSSNFAVSTLTSYDWSDRDDATQGRKLSPFVLSAGSGSPSATSILQKKETSFGSSENITMTSLSKVTTFVSEDALPETTFPALASFKDTIPQTSEQKEYENRDYKDFTKQDLPTAERSQEATCPSPASSGASQETPNECSDDFGEFQSEKPKISKFDFLVATSQSKMKSSEEMIKSELATFDLSVQGSHKRSLSLGDKEISRSSPSPALEQPFRDRSNTLNEKPALPVIRDKYKDLTGEVEENERYAYEWQRCLGSALNVIKKANDTLNGISSSSVCTEVIQSAQGMEYLLGVVEVYRVTKRVELGIKATAVCSEKLQQLLKDIDKVWNNLIGFMSLATLTPDENSLDFSSCMLRPGIKNAQELACGVCLLNVDSRSRKEEKPAEEHPKKAFNSETDSFKLAYGGHQYHASCANFWINCVEPKPPGLVLPDLL

No constants are given. Whether binding was seen depends on the method and setting. In cells and extracts the contact can be indirect. Some binding calls cover weakened binding; strength is not graded here.

The target in the experiment is GFP-tagged human HEATR5B, stably expressed in HEK293 Flp-In cells (human) (UniProt Q9P2D3). The experiment is described as follows: co-IP; GFP-Trap magnetic beads, lysates of HEK293 Flp-In T-REx cells expressing GFP-HEATR5B or GFP, 4 h at 4°C, washed in Citomix buffer; immunoblots. For orientation: In western blotting, separated proteins are transferred to a membrane and probed.
On to “DCTN1 (dynactin subunit), endogenous in HEK293 cells (from UniProt Q14203 1-1278)”, for which the binding result is recorded as “binds”.

For the molecule “DYNC1H1 (dynein heavy chain), endogenous in HEK293 cells (from UniProt Q14204 1-4646)”, the binding entry is listed as “binds”.

Take B1: the binding entry is given as “binds”.

B2: the binding entry is “binds”.
